Experimental data: the supplement of paper PMC4604168 (melanoma cell lines)
Some of the results follow. Single values are uncertain, as repeats are few or missing.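 Imaging used 1,536-well plates; nuclei positive for cleaved PARP by antibody were divided by total DNA-stained nuclei to yield the apoptosis fraction. Doses for screening kept most cells viable, and cell lines differ markedly in resting and induced cleaved-PARP levels.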

How the values were obtained:
Test in all cases: cleaved PARP positive nuclei fraction relative to DMSO control; melanoma cells; higher = more apoptosis
Settings in all cases: library dose: low library concentration; 72 h
[1] = system: CBRC034 (line from a melanoma biopsy)
[2] = system: COLO792
[3] = system: COLO800
[4] = system: COLO829
[5] = system: G361
[6] = system: IPC-298
[7] = system: IST-MEL1
[8] = system: LB2518-MEL
[9] = system: LOXIMVI
[10] = system: MEL-HO
[11] = system: MZ2-MEL
[12] = system: MeWo
[13] = system: RPMI7951
[14] = system: RVH-421
[15] = system: SkMel28
[16] = system: SkMel2
[17] = system: SkMel30
[18] = system: UACC62

Compound	cleaved PARP positive nuclei fraction [1] [%]	cleaved PARP positive nuclei fraction [2] [%]	cleaved PARP positive nuclei fraction [3] [%]	cleaved PARP positive nuclei fraction [4] [%]	cleaved PARP positive nuclei fraction [5] [%]	cleaved PARP positive nuclei fraction [6] [%]	cleaved PARP positive nuclei fraction [7] [%]	cleaved PARP positive nuclei fraction [8] [%]	cleaved PARP positive nuclei fraction [9] [%]	cleaved PARP positive nuclei fraction [10] [%]	cleaved PARP positive nuclei fraction [11] [%]	cleaved PARP positive nuclei fraction [12] [%]	cleaved PARP positive nuclei fraction [13] [%]	cleaved PARP positive nuclei fraction [14] [%]	cleaved PARP positive nuclei fraction [15] [%]	cleaved PARP positive nuclei fraction [16] [%]	cleaved PARP positive nuclei fraction [17] [%]	cleaved PARP positive nuclei fraction [18] [%]
O=c1[nH]nc(Sc2ncc([N+](=O)[O-])s2)n1-c1ccc2c(c1)OCCO2 + COc1ccc(C2=N[C@@H](c3ccc(Cl)cc3)[C@@H](c3ccc(Cl)cc3)N2C(=O)N2CCNC(=O)C2)c(OC(C)C)c1 [Nutlin-3] (first compound 0.2 µM, partner dose 0.1 µM)	31.9	152	64.4	74.7	62.5	84.4	61	25.3	42.6	75.3	43.8	52.9	35.7	94.5	80.4	36.1	150	59.3
Cc1cn(-c2cc(NC(=O)c3ccc(C)c(Nc4nccc(-c5cccnc5)n4)c3)cc(C(F)(F)F)c2)cn1 [nilotinib] + C=CCNC1=C2C[C@@H](C)C[C@H](OC)[C@H](O)[C@@H](C)/C=C(\C)[C@H](OC(N)=O)[C@@H](OC)/C=C\C=C(/C)C(=O)NC(=CC1=O)C2=O [Tanespimycin] (first compound 0.2 µM, partner dose 0.002 µM)	70.2	132	50.9	67.7	135	135	70.1	123	31.8	129	143	91.7	344	59.6	74.1	143	79	51.8
O=C(/C=C/c1cccnc1)NCCCCC1CCN(C(=O)c2ccccc2)CC1 + Cn1cnc2c(F)c(Nc3ccc(Br)cc3Cl)c(C(=O)NOCCO)cc21 [selumetinib] (first compound 0.01 µM, partner dose 0.015 µM)	722	791	226	362	7110	186	97.4	554	166	123	192	178	53.2	371	188	713	95.8	131
O=C(Nc1cc(C(F)(F)F)cc(C(F)(F)F)c1)c1cc(Cl)ccc1O + C[C@]1(O)C[C@@H](c2nc(-c3ccc4ccc(-c5ccccc5)nc4c3)c3c(N)nccn32)C1 [OSI906] (first compound 0.016 µM, partner dose 0.4 µM)	121	87.6	108	60.6	143	142	142	289	115	142	107	105	40	41.8	298	80.5	97.7	406
O=c1[nH]nc(Sc2ncc([N+](=O)[O-])s2)n1-c1ccc2c(c1)OCCO2 + Cc1nc(Nc2ncc(C(=O)Nc3c(C)cccc3Cl)s2)cc(N2CCN(CCO)CC2)n1 [dasatanib] (first compound 0.2 µM, partner dose 0.004 µM)	433	82.9	94	88.9	103	189	122	112	139	70.5	101	76.1	242	131	70.9	171	131	131
Cc1cc(Nc2cc(N3CCN(C)CC3)nc(Sc3ccc(NC(=O)C4CC4)cc3)n2)n[nH]1 [Tozasertib] + CCCCCCCCc1ccc(CCC(N)(CO)CO)cc1 [fingolimod] (first compound 0.006 µM, partner dose 2 µM)	61.4	43.4	124	149	82.5	147	62.3	60.3	74.1	71.1	94	75.2	77.4	130	23.7	329	72.2	48.3
CCCCCCCCCCCCCCCCCCOP(=O)([O-])OC1CC[N+](C)(C)CC1 [Perifosine] + CCCCCCCCc1ccc(CCC(N)(CO)CO)cc1 [fingolimod] (first compound 0.4 µM, partner dose 2 µM)	74.3	26.4	119	39	109	86	33.4	51.1	63.9	57.2	65.7	129	111	49.8	40.7	25.4	39.2	54.1
Cc1cc(Nc2cc(N3CCN(C)CC3)nc(Sc3ccc(NC(=O)C4CC4)cc3)n2)n[nH]1 [Tozasertib] + Nc1nc(F)nc2c1ncn2[C@@H]1O[C@H](CO)[C@@H](O)[C@@H]1O [fludarabine] (first compound 0.006 µM, partner dose 0.2 µM)	27.2	18.6	123	93.9	89.4	46.4	52	132	25	99.5	21.5	968	156	93.9	95.3	1470	1500	335
Cc1cn(-c2cc(NC(=O)c3ccc(C)c(Nc4nccc(-c5cccnc5)n4)c3)cc(C(F)(F)F)c2)cn1 [nilotinib] + COc1ccc(Cl)c(Nc2nc3ccccc3nc2NS(=O)(=O)c2cccc(NC(=O)C(C)(C)N)c2)c1 [XL147] (first compound 0.2 µM, partner dose 0.8 µM)	89.7	72.8	50.5	92.6	93.4	138	131	54.3	29.4	120	40.9	127	90.6	130	74.2	60.6	97.5	54.6
O=C(/C=C/c1cccnc1)NCCCCC1CCN(C(=O)c2ccccc2)CC1 + O=C(O)c1ccc2c(c1)nc(Nc1cccc(Cl)c1)c1ccncc12 [CX4945] (first compound 0.01 µM, partner dose 0.4 µM)	3380	844	166	280	2600	115	99.8	496	179	255	730	39.7	95.4	161	86.1	2350	60.8	152
CC[C@]1(O)C[C@H]2CN(CCc3c([nH]c4ccccc34)[C@@](C(=O)OC)(c3cc4c(cc3OC)N(C=O)[C@H]3[C@@](O)(C(=O)OC)[C@H](OC(C)=O)[C@]5(CC)C=CCN6CC[C@]43[C@@H]65)C2)C1 [vincristine] + CS(=O)(=O)CCNCc1ccc(-c2ccc3ncnc(Nc4ccc(OCc5cccc(F)c5)c(Cl)c4)c3c2)o1 [lapatinib] (first compound 0.0001 µM, partner dose 0.8 µM)	87.3	227	110	286	107	148	218	249	79.9	169	158	583	283	123	633	422	263	1170
Cc1cc(Nc2cc(N3CCN(C)CC3)nc(Sc3ccc(NC(=O)C4CC4)cc3)n2)n[nH]1 [Tozasertib] + C=C(c1ccc(C(=O)O)cc1)c1cc2c(cc1C)C(C)(C)CCC2(C)C [Bexarotene] (first compound 0.006 µM, partner dose 2 µM)	34.1	32.8	84.4	127	132	46.5	72.1	118	26.4	68	157	24.6	216	300	104	38.1	131	82.1
N#CC[C@H](C1CCCC1)n1cc(-c2ncnc3[nH]ccc23)cn1 [ruxolitinib] + CC(C)C[C@H](NC(=O)[C@H](Cc1ccccc1)NC(=O)c1cnccn1)B(O)O [Bortezomib] (first compound 1 µM, partner dose 0.001 µM)	148	111	50.5	283	234	59.2	64.7	228	82.3	62.4	188	145	59	189	155	84.3	130	42.3
N#CC[C@H](C1CCCC1)n1cc(-c2ncnc3[nH]ccc23)cn1 [ruxolitinib] + CN1CCN(c2ccc3nc(-c4c(N)c5c(F)cccc5[nH]c4=O)[nH]c3c2)CC1 [Dovitinib] (first compound 1 µM, partner dose 0.1 µM)	351	64.3	88.7	52.2	148	102	61.4	170	42.3	62.7	122	97.7	45.9	106	27.7	70.3	94.9	65.4
O=C(/C=C/c1cccnc1)NCCCCC1CCN(C(=O)c2ccccc2)CC1 + CC1(C)CCC(c2ccc(Cl)cc2)=C(CN2CCN(c3ccc(C(=O)NS(=O)(=O)c4ccc(N[C@H](CCN5CCOCC5)CSc5ccccc5)c(S(=O)(=O)C(F)(F)F)c4)cc3)CC2)C1 [ABT263] (first compound 0.01 µM, partner dose 0.4 µM)	1690	2140	161	405	8210	11400	3040	668	864	1430	1210	406	72.3	210	78.9	2700	231	62.2
CC[C@]1(O)C[C@H]2CN(CCc3c([nH]c4ccccc34)[C@@](C(=O)OC)(c3cc4c(cc3OC)N(C=O)[C@H]3[C@@](O)(C(=O)OC)[C@H](OC(C)=O)[C@]5(CC)C=CCN6CC[C@]43[C@@H]65)C2)C1 [vincristine] + Clc1ccc(Nc2nnc(Cc3ccncc3)c3ccccc23)cc1 [vatalanib] (first compound 0.0001 µM, partner dose 2 µM)	38.2	111	123	140	92.2	60	69.7	129	82.2	104	175	271	82.1	261	124	114	159	443

Copied from above (two entries):
Compound	cleaved PARP positive nuclei fraction [1] [%]	cleaved PARP positive nuclei fraction [2] [%]	cleaved PARP positive nuclei fraction [3] [%]	cleaved PARP positive nuclei fraction [4] [%]	cleaved PARP positive nuclei fraction [5] [%]	cleaved PARP positive nuclei fraction [6] [%]	cleaved PARP positive nuclei fraction [7] [%]	cleaved PARP positive nuclei fraction [8] [%]	cleaved PARP positive nuclei fraction [9] [%]	cleaved PARP positive nuclei fraction [10] [%]	cleaved PARP positive nuclei fraction [11] [%]	cleaved PARP positive nuclei fraction [12] [%]	cleaved PARP positive nuclei fraction [13] [%]	cleaved PARP positive nuclei fraction [14] [%]	cleaved PARP positive nuclei fraction [15] [%]	cleaved PARP positive nuclei fraction [16] [%]	cleaved PARP positive nuclei fraction [17] [%]	cleaved PARP positive nuclei fraction [18] [%]
CC[C@]1(O)C[C@H]2CN(CCc3c([nH]c4ccccc34)[C@@](C(=O)OC)(c3cc4c(cc3OC)N(C=O)[C@H]3[C@@](O)(C(=O)OC)[C@H](OC(C)=O)[C@]5(CC)C=CCN6CC[C@]43[C@@H]65)C2)C1 [vincristine] + CS(=O)(=O)CCNCc1ccc(-c2ccc3ncnc(Nc4ccc(OCc5cccc(F)c5)c(Cl)c4)c3c2)o1 [lapatinib] (first compound 0.0001 µM, partner dose 0.8 µM)	87.3	227	110	286	107	148	218	249	79.9	169	158	583	283	123	633	422	263	1170
Cc1cc(Nc2cc(N3CCN(C)CC3)nc(Sc3ccc(NC(=O)C4CC4)cc3)n2)n[nH]1 [Tozasertib] + C=C(c1ccc(C(=O)O)cc1)c1cc2c(cc1C)C(C)(C)CCC2(C)C [Bexarotene] (first compound 0.006 µM, partner dose 2 µM)	34.1	32.8	84.4	127	132	46.5	72.1	118	26.4	68	157	24.6	216	300	104	38.1	131	82.1
